Data reported in paper PMC9293670 (Acta Pharmaceutica Sinica. B, 2022).

Test system: hippocampus neurons
Test: HE staining of hippocampal CA3 region in UCCAO mice
Type: in vivo, C57BL/6J mice
Conditions: vs model group

## COc1cc2c(cc1OC)C(=O)C(CC1CCN(Cc3ccccc3)CC1)C2 (stereo not shown) [donepezil]
  histological changes of hippocampus neurons (HE staining): clearly reduced the shrunken or irregular neurons
